# Some of the results follow.
# Protein sequences, listed by entry. Tags and fused reporters are not part of them. Lines headed by an entry give the natural chain unless they say otherwise; changes in a name come on top.
# UniProt O00764: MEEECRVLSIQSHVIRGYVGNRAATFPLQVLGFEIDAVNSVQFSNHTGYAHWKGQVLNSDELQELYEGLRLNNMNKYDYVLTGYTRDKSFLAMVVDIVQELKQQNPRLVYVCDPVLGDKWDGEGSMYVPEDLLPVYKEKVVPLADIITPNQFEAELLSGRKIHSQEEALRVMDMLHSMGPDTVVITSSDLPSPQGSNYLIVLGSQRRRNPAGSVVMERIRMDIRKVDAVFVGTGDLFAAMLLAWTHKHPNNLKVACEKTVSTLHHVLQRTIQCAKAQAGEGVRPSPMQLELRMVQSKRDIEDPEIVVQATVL
# UniProt P08559, whole entry, looked up: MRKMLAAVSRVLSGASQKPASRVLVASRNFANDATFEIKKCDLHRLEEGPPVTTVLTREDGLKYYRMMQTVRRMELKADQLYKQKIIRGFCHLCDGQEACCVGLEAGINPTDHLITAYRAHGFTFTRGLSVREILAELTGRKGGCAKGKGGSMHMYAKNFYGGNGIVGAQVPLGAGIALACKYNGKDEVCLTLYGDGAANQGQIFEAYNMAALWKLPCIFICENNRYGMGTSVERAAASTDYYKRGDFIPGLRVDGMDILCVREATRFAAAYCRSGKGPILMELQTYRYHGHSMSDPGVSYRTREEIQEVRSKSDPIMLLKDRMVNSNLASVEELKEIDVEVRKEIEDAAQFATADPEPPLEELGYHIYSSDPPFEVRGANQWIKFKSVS
# UniProt Q8NBM8: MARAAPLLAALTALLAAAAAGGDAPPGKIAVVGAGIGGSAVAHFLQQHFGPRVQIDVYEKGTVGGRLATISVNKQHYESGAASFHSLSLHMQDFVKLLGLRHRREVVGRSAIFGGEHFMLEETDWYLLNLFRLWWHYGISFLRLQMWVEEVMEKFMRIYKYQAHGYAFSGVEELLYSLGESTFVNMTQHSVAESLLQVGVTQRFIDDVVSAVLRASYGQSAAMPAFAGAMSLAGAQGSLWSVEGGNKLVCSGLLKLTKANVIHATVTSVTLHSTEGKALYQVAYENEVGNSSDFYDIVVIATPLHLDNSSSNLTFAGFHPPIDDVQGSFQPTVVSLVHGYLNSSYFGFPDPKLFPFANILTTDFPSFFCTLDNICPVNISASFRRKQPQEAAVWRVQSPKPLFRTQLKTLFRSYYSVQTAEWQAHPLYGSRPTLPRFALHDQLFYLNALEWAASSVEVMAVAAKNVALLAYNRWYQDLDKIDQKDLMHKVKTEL
# UniProt Q14690: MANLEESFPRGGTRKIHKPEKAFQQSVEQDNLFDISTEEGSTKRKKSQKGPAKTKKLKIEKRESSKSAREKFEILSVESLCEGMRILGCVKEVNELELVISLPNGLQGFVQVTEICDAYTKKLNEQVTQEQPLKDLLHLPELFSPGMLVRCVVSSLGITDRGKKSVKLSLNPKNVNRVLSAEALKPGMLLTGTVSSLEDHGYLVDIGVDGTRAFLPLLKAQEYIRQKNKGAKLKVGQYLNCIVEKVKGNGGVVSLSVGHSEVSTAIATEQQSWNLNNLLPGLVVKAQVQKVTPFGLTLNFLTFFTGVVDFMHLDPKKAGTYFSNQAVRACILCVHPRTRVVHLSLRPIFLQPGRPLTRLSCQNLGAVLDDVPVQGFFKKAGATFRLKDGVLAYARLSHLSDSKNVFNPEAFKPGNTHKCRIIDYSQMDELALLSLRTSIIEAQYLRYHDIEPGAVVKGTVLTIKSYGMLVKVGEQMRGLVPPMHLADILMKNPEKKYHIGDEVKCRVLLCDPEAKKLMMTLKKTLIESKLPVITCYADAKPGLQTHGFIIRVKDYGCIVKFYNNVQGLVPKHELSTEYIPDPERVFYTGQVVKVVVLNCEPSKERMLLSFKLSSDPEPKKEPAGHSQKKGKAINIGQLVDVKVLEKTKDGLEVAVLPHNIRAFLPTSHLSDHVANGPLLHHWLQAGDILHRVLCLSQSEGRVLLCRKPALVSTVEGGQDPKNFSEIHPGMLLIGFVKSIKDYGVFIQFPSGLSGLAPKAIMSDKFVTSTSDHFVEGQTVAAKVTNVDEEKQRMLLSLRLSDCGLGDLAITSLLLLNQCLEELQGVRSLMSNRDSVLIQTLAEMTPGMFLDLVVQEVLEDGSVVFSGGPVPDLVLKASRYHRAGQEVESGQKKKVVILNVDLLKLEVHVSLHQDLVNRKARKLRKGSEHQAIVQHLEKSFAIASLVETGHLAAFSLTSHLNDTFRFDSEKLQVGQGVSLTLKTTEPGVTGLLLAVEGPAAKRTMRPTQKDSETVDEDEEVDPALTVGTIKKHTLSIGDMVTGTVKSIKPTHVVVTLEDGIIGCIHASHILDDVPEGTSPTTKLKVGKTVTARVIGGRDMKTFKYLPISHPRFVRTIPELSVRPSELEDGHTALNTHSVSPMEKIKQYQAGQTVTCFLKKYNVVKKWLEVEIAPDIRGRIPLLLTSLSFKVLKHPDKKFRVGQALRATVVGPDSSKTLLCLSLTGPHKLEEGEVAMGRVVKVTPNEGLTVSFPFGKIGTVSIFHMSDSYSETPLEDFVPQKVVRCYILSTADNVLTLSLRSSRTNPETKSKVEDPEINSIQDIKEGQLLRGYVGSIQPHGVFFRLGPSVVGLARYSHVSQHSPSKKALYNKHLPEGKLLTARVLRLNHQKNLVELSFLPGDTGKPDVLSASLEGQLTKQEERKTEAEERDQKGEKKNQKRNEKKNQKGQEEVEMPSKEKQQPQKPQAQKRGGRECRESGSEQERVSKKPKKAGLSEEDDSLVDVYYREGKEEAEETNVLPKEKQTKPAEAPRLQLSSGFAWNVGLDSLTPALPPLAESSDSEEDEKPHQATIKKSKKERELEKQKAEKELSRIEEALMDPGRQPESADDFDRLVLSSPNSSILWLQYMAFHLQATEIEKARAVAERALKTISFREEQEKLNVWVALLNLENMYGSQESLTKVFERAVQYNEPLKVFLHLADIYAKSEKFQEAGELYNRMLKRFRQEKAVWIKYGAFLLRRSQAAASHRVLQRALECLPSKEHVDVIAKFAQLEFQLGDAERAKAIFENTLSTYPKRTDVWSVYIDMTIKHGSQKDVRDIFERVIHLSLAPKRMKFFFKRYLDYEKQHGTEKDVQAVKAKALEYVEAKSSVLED
# UniProt Q29RF7: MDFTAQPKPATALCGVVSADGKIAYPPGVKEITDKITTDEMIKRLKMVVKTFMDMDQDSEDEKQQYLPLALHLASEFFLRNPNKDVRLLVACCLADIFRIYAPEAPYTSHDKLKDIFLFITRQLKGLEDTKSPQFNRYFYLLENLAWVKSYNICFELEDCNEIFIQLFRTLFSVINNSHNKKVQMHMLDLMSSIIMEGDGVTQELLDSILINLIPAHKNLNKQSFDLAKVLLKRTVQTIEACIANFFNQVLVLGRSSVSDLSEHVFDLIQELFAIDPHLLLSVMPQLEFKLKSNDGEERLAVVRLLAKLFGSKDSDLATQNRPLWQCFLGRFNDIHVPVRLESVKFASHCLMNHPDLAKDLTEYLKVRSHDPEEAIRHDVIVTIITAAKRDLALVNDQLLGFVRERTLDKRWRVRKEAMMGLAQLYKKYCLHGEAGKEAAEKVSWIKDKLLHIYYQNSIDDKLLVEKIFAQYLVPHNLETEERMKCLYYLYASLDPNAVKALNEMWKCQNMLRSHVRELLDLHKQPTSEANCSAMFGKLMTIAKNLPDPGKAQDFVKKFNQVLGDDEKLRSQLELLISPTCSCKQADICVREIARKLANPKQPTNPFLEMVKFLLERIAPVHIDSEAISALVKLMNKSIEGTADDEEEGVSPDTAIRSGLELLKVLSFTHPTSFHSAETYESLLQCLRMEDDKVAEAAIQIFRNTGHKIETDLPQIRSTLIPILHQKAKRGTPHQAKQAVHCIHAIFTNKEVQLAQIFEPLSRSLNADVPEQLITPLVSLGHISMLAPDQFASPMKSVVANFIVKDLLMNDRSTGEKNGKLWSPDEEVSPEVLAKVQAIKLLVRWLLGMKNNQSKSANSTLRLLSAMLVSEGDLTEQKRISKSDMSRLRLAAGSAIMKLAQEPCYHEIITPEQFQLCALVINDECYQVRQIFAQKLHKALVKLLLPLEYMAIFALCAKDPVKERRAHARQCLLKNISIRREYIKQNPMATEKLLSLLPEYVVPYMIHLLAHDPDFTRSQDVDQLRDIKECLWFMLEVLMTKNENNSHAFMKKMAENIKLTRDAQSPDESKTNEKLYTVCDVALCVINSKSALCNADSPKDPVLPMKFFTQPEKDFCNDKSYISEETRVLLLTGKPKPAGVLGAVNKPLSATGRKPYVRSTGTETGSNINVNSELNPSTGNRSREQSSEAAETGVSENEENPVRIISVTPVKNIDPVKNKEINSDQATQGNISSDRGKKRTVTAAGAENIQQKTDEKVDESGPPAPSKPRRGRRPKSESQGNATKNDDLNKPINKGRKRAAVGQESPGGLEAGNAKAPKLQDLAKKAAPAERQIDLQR
# UniProt Q13370: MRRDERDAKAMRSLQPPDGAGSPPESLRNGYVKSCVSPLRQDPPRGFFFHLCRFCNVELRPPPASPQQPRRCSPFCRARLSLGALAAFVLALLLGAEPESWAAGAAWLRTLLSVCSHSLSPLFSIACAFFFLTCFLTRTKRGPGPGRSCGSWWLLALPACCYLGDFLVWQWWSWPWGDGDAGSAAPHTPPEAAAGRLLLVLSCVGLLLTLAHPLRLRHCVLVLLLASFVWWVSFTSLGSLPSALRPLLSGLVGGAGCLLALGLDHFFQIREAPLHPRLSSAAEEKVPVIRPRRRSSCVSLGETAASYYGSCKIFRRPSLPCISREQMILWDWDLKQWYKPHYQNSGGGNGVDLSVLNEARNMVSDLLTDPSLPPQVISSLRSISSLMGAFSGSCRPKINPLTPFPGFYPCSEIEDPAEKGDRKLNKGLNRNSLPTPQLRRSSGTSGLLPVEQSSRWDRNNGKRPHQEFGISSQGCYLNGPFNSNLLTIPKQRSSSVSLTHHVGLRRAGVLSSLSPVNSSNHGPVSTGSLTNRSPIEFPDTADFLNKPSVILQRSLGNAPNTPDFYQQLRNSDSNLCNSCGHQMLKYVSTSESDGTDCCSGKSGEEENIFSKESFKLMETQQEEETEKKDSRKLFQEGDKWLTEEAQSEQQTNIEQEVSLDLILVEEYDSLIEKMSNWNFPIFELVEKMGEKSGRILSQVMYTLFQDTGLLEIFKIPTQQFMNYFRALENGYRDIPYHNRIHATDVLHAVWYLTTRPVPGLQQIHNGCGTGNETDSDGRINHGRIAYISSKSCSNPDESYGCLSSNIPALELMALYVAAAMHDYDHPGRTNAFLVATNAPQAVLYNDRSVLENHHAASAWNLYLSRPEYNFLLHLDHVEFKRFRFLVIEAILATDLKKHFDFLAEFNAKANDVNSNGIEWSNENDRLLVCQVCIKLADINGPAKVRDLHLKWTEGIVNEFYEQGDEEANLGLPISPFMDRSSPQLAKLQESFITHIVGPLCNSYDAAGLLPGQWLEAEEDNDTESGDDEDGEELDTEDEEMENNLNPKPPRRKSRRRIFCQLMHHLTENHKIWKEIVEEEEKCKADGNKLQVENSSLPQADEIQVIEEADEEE
# UniProt Q8NCN5: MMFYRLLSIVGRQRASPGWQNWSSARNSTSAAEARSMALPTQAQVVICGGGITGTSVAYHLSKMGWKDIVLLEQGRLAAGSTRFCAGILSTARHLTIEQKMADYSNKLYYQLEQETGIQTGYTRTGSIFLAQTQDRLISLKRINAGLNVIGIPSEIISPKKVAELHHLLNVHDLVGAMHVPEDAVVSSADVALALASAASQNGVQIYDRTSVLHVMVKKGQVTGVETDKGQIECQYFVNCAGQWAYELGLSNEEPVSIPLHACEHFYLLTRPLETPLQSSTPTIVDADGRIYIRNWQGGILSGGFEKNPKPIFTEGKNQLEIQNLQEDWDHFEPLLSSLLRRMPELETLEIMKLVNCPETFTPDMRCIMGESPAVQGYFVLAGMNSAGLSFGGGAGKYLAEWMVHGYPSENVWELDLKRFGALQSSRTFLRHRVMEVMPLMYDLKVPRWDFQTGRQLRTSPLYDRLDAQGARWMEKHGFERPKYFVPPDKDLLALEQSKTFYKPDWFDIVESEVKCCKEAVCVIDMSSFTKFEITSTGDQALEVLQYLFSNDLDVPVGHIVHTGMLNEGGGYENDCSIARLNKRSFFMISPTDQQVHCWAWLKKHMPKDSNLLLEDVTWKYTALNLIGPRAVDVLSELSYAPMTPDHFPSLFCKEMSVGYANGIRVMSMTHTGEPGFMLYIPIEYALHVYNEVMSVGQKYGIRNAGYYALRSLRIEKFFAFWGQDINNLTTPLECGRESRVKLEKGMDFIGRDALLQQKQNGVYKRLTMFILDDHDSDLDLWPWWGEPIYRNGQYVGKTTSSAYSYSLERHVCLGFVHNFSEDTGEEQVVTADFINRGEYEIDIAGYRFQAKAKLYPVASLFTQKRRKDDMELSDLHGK
# Compound: Cc1cc(ccc1-c1ccccc1)C(=O)N1CCCN(CC1)C(=O)CCl [compound 10]
# Experiment: probe-labelled cysteine peptide fold change vs DMSO (competition) (log2 fold change); higher = less target engagement (more negative = stronger competition)
# Conditions: 50 µM; THP-1; incubation time: 4 h
# 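Note: competitive profiling in live THP-1 cells: cysteine peptides tagged with an iodoacetamide desthiobiotin (IA-DTB) probe, intensity after compound treatment relative to DMSO-treated cells.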
row,Target,probe-labelled cysteine peptide fold change
1,PDXK_O00764_5_MEEECR (UniProt O00764),0.193
2,PDLIM7_Q9NR12_367+370_MTWHVHCFTCAACK (UniProt Q9NR12),-0.216
3,PAXIP1_Q6ZW49_1029_QNSSLSEIILISCENDLHLCR (UniProt Q6ZW49),0.0614
4,PDHA1_P08559_273_FAAAYCR (UniProt P08559),-0.0209
5,PDIA5_Q14554_465_NQDLCQQEAVK (UniProt Q14554),-0.137
6,PCYOX1L_Q8NBM8_250_LVCSGLLK (UniProt Q8NBM8),0.226
7,PDLIM2_Q96JY6_289_CSTSIANQAVR (UniProt Q96JY6),-0.59
8,PDCD11_Q14690_535_LPVITCYADAKPGLQTHGFIIR (UniProt Q14690),0.0233
9,PDS5A_Q29RF7_1079+1084_LYTVCDVALCVINSK (UniProt Q29RF7),-0.00974
10,PATZ1_Q9HBE1_297_EAGILPCGLCGK (UniProt Q9HBE1),0.0544
11,PDE3B_Q13370_475_RPHQEFGISSQGCYLNGPFNSNLLTIPK (UniProt Q13370),-0.854
12,PDCD2L_Q9BRP1_100_SQCLQVPER (UniProt Q9BRP1),0.166
13,PDE1A_P54750_406_EAELGLPFSPLCDR (UniProt P54750),0.0509
14,PDPR_Q8NCN5_85_FCAGILSTAR (UniProt Q8NCN5),-0.031
15,PCM1_Q15154_1616_EHMDEVCSSQLLTSVRR (UniProt Q15154),-0.639
16,PDS5A_Q29RF7_92_LLVACCLADIFR (UniProt Q29RF7),0.676
